Measurements as given in article PMC8849481.
Results are given in words; binding and its absence hold for the method and conditions named. In cells and extracts the contact can be indirect. Some results given as binding are weak or reduced against the parent protein; the word gives no strength. Sequences can lack the tags named with a protein.

By UniProt entry, the sequences of proteins in these tests, tags left out.
UniProt Q13283: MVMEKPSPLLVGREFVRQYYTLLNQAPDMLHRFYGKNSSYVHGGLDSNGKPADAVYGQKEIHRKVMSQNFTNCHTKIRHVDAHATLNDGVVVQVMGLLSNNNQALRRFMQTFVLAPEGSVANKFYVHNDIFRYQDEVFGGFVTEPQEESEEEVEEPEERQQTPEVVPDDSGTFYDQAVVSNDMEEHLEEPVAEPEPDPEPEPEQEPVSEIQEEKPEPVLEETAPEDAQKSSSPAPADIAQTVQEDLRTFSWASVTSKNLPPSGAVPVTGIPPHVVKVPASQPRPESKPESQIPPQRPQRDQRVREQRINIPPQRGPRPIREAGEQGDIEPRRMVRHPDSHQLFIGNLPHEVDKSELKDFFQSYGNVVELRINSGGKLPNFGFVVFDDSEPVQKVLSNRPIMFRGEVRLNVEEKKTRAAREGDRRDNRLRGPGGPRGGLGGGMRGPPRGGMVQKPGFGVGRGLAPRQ

T1: MxA, Flag-tagged (human) (UniProt P20591)
T1 sequence: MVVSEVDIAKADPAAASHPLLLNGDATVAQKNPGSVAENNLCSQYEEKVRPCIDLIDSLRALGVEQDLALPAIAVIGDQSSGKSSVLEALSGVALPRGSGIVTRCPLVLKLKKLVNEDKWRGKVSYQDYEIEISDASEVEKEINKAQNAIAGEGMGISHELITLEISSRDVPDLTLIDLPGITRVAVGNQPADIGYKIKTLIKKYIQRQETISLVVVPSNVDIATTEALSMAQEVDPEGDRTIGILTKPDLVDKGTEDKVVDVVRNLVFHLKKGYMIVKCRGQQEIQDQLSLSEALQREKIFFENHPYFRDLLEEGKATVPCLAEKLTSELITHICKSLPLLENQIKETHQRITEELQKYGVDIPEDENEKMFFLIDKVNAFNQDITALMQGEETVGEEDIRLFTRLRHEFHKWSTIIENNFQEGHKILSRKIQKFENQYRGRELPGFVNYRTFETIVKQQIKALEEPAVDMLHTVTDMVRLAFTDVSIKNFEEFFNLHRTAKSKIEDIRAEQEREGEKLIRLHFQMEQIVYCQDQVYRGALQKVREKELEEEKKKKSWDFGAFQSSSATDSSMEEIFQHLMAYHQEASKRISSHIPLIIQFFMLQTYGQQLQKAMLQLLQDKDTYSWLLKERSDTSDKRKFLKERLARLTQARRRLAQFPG

T2: myxovirus resistance protein B (MxB), Flag-tagged (human) (UniProt P20592)
T2 sequence: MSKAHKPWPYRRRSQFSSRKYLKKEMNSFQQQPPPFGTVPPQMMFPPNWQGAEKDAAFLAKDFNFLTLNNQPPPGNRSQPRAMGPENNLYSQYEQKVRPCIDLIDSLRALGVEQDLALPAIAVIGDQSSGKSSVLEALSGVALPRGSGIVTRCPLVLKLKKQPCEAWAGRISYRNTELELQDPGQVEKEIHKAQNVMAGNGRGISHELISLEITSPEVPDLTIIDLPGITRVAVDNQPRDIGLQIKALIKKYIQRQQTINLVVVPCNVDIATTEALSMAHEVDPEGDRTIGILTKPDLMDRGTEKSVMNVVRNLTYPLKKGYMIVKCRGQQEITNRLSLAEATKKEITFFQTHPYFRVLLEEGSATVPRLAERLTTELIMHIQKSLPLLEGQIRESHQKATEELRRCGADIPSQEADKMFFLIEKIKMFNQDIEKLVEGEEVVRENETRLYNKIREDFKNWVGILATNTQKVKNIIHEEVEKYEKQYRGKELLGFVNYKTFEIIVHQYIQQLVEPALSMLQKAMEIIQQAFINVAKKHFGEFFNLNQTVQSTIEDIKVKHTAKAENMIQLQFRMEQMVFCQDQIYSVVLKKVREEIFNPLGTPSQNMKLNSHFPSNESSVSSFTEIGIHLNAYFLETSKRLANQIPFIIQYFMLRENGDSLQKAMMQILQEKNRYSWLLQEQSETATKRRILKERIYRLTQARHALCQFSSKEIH

B1: TIA1 (protein, UniProt P31483 1-386)
chain: MEDEMPKTLYVGNLSRDVTEALILQLFSQIGPCKNCKMIMDTAGNDPYCFVEFHEHRHAAAALAAMNGRKIMGKEVKVNWATTPSSQKKDTSSSTVVSTQRSQDHFHVFVGDLSPEITTEDIKAAFAPFGRISDARVVKDMATGKSKGYGFVSFFNKWDAENAIQQMGGQWLGGRQIRTNWATRKPPAPKSTYESNTKQLSYDEVVNQSSPSNCTVYCGGVTSGLTEQLMRQTFSPFGQIMEIRVFPDKGYSFVRFNSHESAAHAIVSVNGTTIEGHVVKCYWGKETLDMINPVQQQNQIGYPQPYGQWGQWYGNAQQIGQYMPNGWQVPAYGMYGQAWNQQGFNQTQSSAPWMGPNYGVQPPQGQNGSMLPNQPSGYRVAGYETQ

Key:
MxA, Flag-tagged (human) = target: T1, MxA, Flag-tagged (human); test: co-IP; anti-Flag M2 affinity gel with 1 mg lysate of transfected HEK293T cells in RIPA buffer (0.1% SDS, 1% Triton X-100, 1% sodium deoxycholate, 150 mM NaCl, 10 mM Tris pH 7.5, 1 mM EDTA), overnight at 4°C, three washes, Western blot; one panel (Fig 2G) with or without RNase A
[1] = target: T2, myxovirus resistance protein B (MxB), Flag-tagged (human); test: as above

| Molecule | binding (MxA, Flag-tagged (human)) | binding [1] |
| --- | --- | --- |
| G3BP1 (from UniProt Q13283 1-466) | no binding | binds |
| B1 | no binding | binds |
